# The list shows a part of the results.
# Tests used:
# Assay in all cases: glycan array binding signal (z-score within array); higher = stronger binding
# Conditions in all cases: glycan notation: IUPAC condensed, linker removed
# [1] = biological target: Neu5Ac(a2-3)Gal
# Procedure, shortened: (§1)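 The Consortium for Functional Glycomics database supplied 3228 glycan arrays, of which those lacking an available protein sequence were dropped. The binding signal, a within-array Z-score, was averaged across arrays of the same protein sequence and across linkers. Negative scores can be read as non-binding.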
# [2] = biological target: Neu5Ac(a2-3)Gal(b1-3)GalNAc
# Procedure, shortened: as §1
# [3] = biological target: Neu5Ac(a2-3)Gal(b1-3)GalNAc(b1-3)Gal(a1-4)Gal(b1-4)Glc
# Procedure, shortened: as §1
# [4] = biological target: Neu5Ac(a2-3)Gal(b1-3)GalNAc(b1-4)Gal(b1-4)Glc
# Procedure, shortened: as §1
# [5] = biological target: Neu5Ac(a2-3)Gal(b1-3)GalNAc(b1-4)[Neu5Ac(a2-3)]Gal(b1-4)Glc
# Procedure, shortened: as §1
# [6] = biological target: Neu5Ac(a2-3)Gal(b1-3)GalNAc(b1-4)[Neu5Ac(a2-8)Neu5Ac(a2-3)]Gal(b1-4)Glc
# Procedure, shortened: as §1
# [7] = biological target: Neu5Ac(a2-3)Gal(b1-3)GalNAc6S
# Procedure, shortened: as §1
# [8] = biological target: Neu5Ac(a2-3)Gal(b1-3)GlcNAc
# Procedure, shortened: as §1
# [9] = biological target: Neu5Ac(a2-3)Gal(b1-3)GlcNAc(b1-2)Man
# Procedure, shortened: as §1
# [10] = biological target: Neu5Ac(a2-3)Gal(b1-3)GlcNAc(b1-2)Man(a1-3)[GlcNAc(b1-4)][Neu5Ac(a2-3)Gal(b1-3)GlcNAc(b1-2)Man(a1-6)]Man(b1-4)GlcNAc(b1-4)GlcNAc
# Procedure, shortened: as §1
# [11] = biological target: Neu5Ac(a2-3)Gal(b1-3)GlcNAc(b1-2)Man(a1-3)[Neu5Ac(a2-3)Gal(b1-3)GlcNAc(b1-2)Man(a1-6)]Man(b1-4)GlcNAc(b1-4)GlcNAc
# Procedure, shortened: as §1
# [12] = biological target: Neu5Ac(a2-3)Gal(b1-3)GlcNAc(b1-2)[Neu5Ac(a2-3)Gal(b1-3)GlcNAc(b1-4)]Man(a1-6)[Neu5Ac(a2-3)Gal(b1-3)GlcNAc(b1-2)Man(a1-3)]Man(b1-4)GlcNAc(b1-4)GlcNAc
# Procedure, shortened: as §1
# [13] = biological target: Neu5Ac(a2-3)Gal(b1-3)GlcNAc(b1-3)Gal(b1-3)GlcNAc
# Procedure, shortened: as §1
# [14] = biological target: Neu5Ac(a2-3)Gal(b1-3)GlcNAc(b1-3)Gal(b1-4)GlcNAc
# Procedure, shortened: as §1
# [15] = biological target: Neu5Ac(a2-3)Gal(b1-3)GlcNAc(b1-3)GalNAc
# Procedure, shortened: as §1
# [16] = biological target: Neu5Ac(a2-3)Gal(b1-3)GlcNAc(b1-6)GalNAc
# Procedure, shortened: as §1
# [17] = biological target: Neu5Ac(a2-3)Gal(b1-3)GlcNAc6S
# Procedure, shortened: as §1
# [18] = biological target: Neu5Ac(a2-3)Gal(b1-3)[Fuc(a1-4)]GlcNAc
# Procedure, shortened: as §1
# [19] = biological target: Neu5Ac(a2-3)Gal(b1-3)[Fuc(a1-4)]GlcNAc(b1-3)Gal(b1-3)[Fuc(a1-4)]GlcNAc
# Procedure, shortened: as §1
# [20] = biological target: Neu5Ac(a2-3)Gal(b1-3)[Fuc(a1-4)]GlcNAc(b1-3)Gal(b1-4)[Fuc(a1-3)]GlcNAc
# Procedure, shortened: as §1
# [21] = biological target: Neu5Ac(a2-3)Gal(b1-3)[GlcNAc(b1-6)]GalNAc
# Procedure, shortened: as §1
# [22] = biological target: Neu5Ac(a2-3)Gal(b1-3)[Neu5Ac(a2-6)]GalNAc
# Procedure, shortened: as §1
# [23] = biological target: Neu5Ac(a2-3)Gal(b1-3)[Neu5Ac(a2-6)]GlcNAc(b1-3)[Fuc(a1-3)[Gal(b1-4)]GlcNAc(b1-6)]Gal(b1-4)Glc
# Procedure, shortened: as §1
# [24] = biological target: Neu5Ac(a2-3)Gal(b1-3)]Neu5Ac(a2-3)Gal(b1-4)]GlcNAc
# Procedure, shortened: as §1
# [25] = biological target: Neu5Ac(a2-3)Gal(b1-4)Glc
# Procedure, shortened: as §1
# [26] = biological target: Neu5Ac(a2-3)Gal(b1-4)GlcNAc
# Procedure, shortened: as §1
# [27] = biological target: Neu5Ac(a2-3)Gal(b1-4)GlcNAc(b1-2)Man
# Procedure, shortened: as §1
# [28] = biological target: Neu5Ac(a2-3)Gal(b1-4)GlcNAc(b1-2)Man(a1-3)[GlcNAc(b1-4)][Neu5Ac(a2-3)Gal(b1-4)GlcNAc(b1-2)Man(a1-6)]Man(b1-4)GlcNAc(b1-4)GlcNAc
# Procedure, shortened: as §1
# [29] = biological target: Neu5Ac(a2-3)Gal(b1-4)GlcNAc(b1-2)Man(a1-3)[Neu5Ac(a2-3)Gal(b1-4)GlcNAc(b1-2)Man(a1-6)]Man(b1-4)GlcNAc(b1-4)GlcNAc
# Procedure, shortened: as §1
# [30] = biological target: Neu5Ac(a2-3)Gal(b1-4)GlcNAc(b1-2)Man(a1-3)[Neu5Ac(a2-3)Gal(b1-4)GlcNAc(b1-2)Man(a1-6)]Man(b1-4)GlcNAc(b1-4)[Fuc(a1-6)]GlcNAc
# Procedure, shortened: as §1
# [31] = biological target: Neu5Ac(a2-3)Gal(b1-4)GlcNAc(b1-2)Man(a1-3)[Neu5Ac(a2-6)Gal(b1-4)GlcNAc(b1-2)Man(a1-6)]Man(b1-4)GlcNAc(b1-4)GlcNAc
# Procedure, shortened: as §1
# [32] = biological target: Neu5Ac(a2-3)Gal(b1-4)GlcNAc(b1-2)[Neu5Ac(a2-3)Gal(b1-4)GlcNAc(b1-4)]Man(a1-3)[GlcNAc(b1-4)][Neu5Ac(a2-3)Gal(b1-4)GlcNAc(b1-2)[Neu5Ac(a2-3)Gal(b1-4)GlcNAc(b1-6)]Man(a1-6)]Man(b1-4)GlcNAc(b1-4)GlcNAc
# Procedure, shortened: as §1
# [33] = biological target: Neu5Ac(a2-3)Gal(b1-4)GlcNAc(b1-2)[Neu5Ac(a2-3)Gal(b1-4)GlcNAc(b1-4)]Man(a1-3)[GlcNAc(b1-4)][Neu5Ac(a2-3)Gal(b1-4)GlcNAc(b1-4)Man(a1-6)]Man(b1-4)GlcNAc(b1-4)GlcNAc
# Procedure, shortened: as §1
# [34] = biological target: Neu5Ac(a2-3)Gal(b1-4)GlcNAc(b1-2)[Neu5Ac(a2-3)Gal(b1-4)GlcNAc(b1-6)]Man(a1-6)[Neu5Ac(a2-3)Gal(b1-4)GlcNAc(b1-2)Man(a1-3)][GlcNAc(b1-4)]Man(b1-4)GlcNAc(b1-4)GlcNAc
# Procedure, shortened: as §1
# [35] = biological target: Neu5Ac(a2-3)Gal(b1-4)GlcNAc(b1-3)Gal
# Procedure, shortened: as §1
# [36] = biological target: Neu5Ac(a2-3)Gal(b1-4)GlcNAc(b1-3)Gal(b1-3)GlcNAc
# Procedure, shortened: as §1
# [37] = biological target: Neu5Ac(a2-3)Gal(b1-4)GlcNAc(b1-3)Gal(b1-4)GlcNAc
# Procedure, shortened: as §1
binder,measurement,setting,value
Epa11 (Candida glabrata) (protein) MGSSHHHHHHSSGLVPRGSHMASSNAPNYPVGCSPSVGTQLTPGLSLEVYAYPMDGNNGYCWNATYKDPEFPRSGYLKNKLLGKADGVVGPLNFLAKNKDCSPKVDTLPAGFNFPQPITVTNFTMVLFGYLAPKQSGKYTFKLLADDLLLLNLGATNAFDCCNREATKNNLGEFLAYNLWPNQDKNVTVYLEKGVYYPLRLFFNNRDGGSQLDFSYYFNDSPAPLTDFSGMFFSVPDGAECPARI,glycan array binding signal (z-score),[1],-0.641
same,glycan array binding signal (z-score),[2],0.012
same,glycan array binding signal (z-score),[3],-0.211
same,glycan array binding signal (z-score),[4],-0.466
same,glycan array binding signal (z-score),[5],0.272
same,glycan array binding signal (z-score),[6],-0.07
same,glycan array binding signal (z-score),[7],-0.108
same,glycan array binding signal (z-score),[8],-0.153
same,glycan array binding signal (z-score),[9],-0.819
same,glycan array binding signal (z-score),[10],2.81
same,glycan array binding signal (z-score),[11],-0.279
same,glycan array binding signal (z-score),[12],-0.601
same,glycan array binding signal (z-score),[13],-1.03
same,glycan array binding signal (z-score),[14],-0.336
same,glycan array binding signal (z-score),[15],0.127
same,glycan array binding signal (z-score),[16],0.52
same,glycan array binding signal (z-score),[17],0.733
same,glycan array binding signal (z-score),[18],-0.534
same,glycan array binding signal (z-score),[19],-0.051
same,glycan array binding signal (z-score),[20],0.483
same,glycan array binding signal (z-score),[21],0.812
same,glycan array binding signal (z-score),[22],-0.174
same,glycan array binding signal (z-score),[23],0.375
same,glycan array binding signal (z-score),[24],-0.098
same,glycan array binding signal (z-score),[25],0.127
same,glycan array binding signal (z-score),[26],-0.412
same,glycan array binding signal (z-score),[27],1.13
same,glycan array binding signal (z-score),[28],0.229
same,glycan array binding signal (z-score),[29],-0.133
same,glycan array binding signal (z-score),[30],-0.195
same,glycan array binding signal (z-score),[31],-0.573
same,glycan array binding signal (z-score),[32],0.584
same,glycan array binding signal (z-score),[33],-0.495
same,glycan array binding signal (z-score),[34],-1.24
same,glycan array binding signal (z-score),[35],-0.477
same,glycan array binding signal (z-score),[36],-0.745
same,glycan array binding signal (z-score),[37],0.335

# Three entries picked at random from those above:
binder,measurement,setting,value
Epa11 (Candida glabrata) (protein) MGSSHHHHHHSSGLVPRGSHMASSNAPNYPVGCSPSVGTQLTPGLSLEVYAYPMDGNNGYCWNATYKDPEFPRSGYLKNKLLGKADGVVGPLNFLAKNKDCSPKVDTLPAGFNFPQPITVTNFTMVLFGYLAPKQSGKYTFKLLADDLLLLNLGATNAFDCCNREATKNNLGEFLAYNLWPNQDKNVTVYLEKGVYYPLRLFFNNRDGGSQLDFSYYFNDSPAPLTDFSGMFFSVPDGAECPARI,glycan array binding signal (z-score),[18],-0.534
same,glycan array binding signal (z-score),[26],-0.412
same,glycan array binding signal (z-score),[28],0.229

# From the supplement of paper PMC8728848
